The values that follow come from ChEMBL document CHEMBL4020705, “Investigation of aryl isonitrile compounds with potent, broad-spectrum antifungal activity” (Bioorg Med Chem, 2017).

This experiment relates to Candida parapsilosis. The experiment is described as follows: Antifungal activity against Candida parapsilosis ATCC 22019 after 44 hrs by broth dilution assay. The conditions noted are these: Lodderomyces parapsilosis, ATCC 22019, 44 h. It counts as functional. A digest of the protocol: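 Yeast broth microdilution per CLSI M27-A3, in RPMI-1640. Incubation is at 37 °C for at least 44 h. MIC is the lowest concentration with no visible growth, read by eye.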

Molecules are shown by their SMILES. Converted amounts (≈) assume the structure as drawn.

Regarding `OC(Cn1cncn1)(Cn1cncn1)c1ccc(F)cc1F` [FLUCONAZOLE], the MIC (usually the smallest concentration in the dilution series that meets the test's criterion for growth inhibition) worked out at 1 µM (≈ 0.306 µg/mL).
